Results are given in words; binding and its absence hold for the method and conditions named. Binding seen in cells or lysates may run through a third protein. Some binding calls cover weakened binding; strength is not graded here.
Molecular target: T1, STEP61 (striatal-enriched protein tyrosine phosphatase) (mouse (endogenous in mouse brain)) (UniProt P54830)
T1 sequence: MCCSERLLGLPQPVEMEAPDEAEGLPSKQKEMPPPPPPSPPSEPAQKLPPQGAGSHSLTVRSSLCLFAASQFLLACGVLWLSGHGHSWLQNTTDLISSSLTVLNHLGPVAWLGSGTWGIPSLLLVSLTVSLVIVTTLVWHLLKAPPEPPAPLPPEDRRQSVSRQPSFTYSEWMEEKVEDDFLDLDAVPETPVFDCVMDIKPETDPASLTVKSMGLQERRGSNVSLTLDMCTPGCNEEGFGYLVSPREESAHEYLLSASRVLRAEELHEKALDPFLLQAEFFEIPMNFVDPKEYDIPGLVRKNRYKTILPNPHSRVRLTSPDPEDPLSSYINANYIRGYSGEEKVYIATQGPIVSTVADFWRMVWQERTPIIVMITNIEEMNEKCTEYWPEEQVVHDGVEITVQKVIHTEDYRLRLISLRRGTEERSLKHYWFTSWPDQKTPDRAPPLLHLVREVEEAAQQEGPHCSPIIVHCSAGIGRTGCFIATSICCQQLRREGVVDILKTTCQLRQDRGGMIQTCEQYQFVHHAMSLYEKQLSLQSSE
Assay: co-IP; mouse brain crude synaptosomal (P2) fraction extracted in modified RIPA buffer; immunoprecipitated with anti-STEP antibody or normal mouse serum

Protein sequences, listed by entry. Tags and fused reporters are not part of them.
UniProt Q9ESJ4: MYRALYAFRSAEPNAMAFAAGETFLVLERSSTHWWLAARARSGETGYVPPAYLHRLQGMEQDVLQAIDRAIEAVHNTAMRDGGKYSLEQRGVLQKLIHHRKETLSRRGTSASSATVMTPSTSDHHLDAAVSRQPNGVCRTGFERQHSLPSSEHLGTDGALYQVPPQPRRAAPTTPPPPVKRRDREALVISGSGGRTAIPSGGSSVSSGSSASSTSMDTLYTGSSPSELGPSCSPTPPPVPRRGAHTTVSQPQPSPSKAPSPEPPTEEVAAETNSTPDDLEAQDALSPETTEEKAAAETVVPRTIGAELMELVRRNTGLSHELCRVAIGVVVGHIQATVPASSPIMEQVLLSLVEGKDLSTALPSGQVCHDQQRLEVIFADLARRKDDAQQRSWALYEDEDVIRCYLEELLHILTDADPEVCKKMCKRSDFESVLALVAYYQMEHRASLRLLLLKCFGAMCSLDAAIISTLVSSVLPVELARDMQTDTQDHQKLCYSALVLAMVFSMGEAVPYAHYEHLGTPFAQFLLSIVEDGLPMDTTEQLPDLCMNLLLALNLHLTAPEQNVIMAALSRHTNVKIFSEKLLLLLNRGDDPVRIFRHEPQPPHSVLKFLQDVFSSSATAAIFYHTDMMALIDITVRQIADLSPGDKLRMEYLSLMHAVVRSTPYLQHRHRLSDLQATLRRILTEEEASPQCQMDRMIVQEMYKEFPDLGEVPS

binding: binds
Substance: SPIN90 (from UniProt Q9ESJ4 1-714)

Source: PMC3825632
